Measurements from paper PMC3904413, “Allosteric modulation of GABAA receptors by extracellular ATP” (Molecular Brain, 2014).

Test system: T1, GABAARs (native, cultured hippocampal neurons)
T1 construct: gene Gabra1; native receptors of undefined subunit composition in cultured embryonic (E18) hippocampal neurons
Experiment: whole-cell voltage clamp, potentiation of GABA currents
Assay type: cell-based, Rattus norvegicus
Details: GABA 100 μM by pressure ejection, allosteric potentiator

## Nc1ncnc2c1ncn2[C@@H]1O[C@H](COP(=O)(O)OP(=O)(O)O)[C@@H](O)[C@H]1O [ADP]
ADP 2 mM in bath
  GABA current, % of control at 2 mM: 140 ± 14.7%

## Nc1ncnc2c1ncn2[C@@H]1O[C@H](COP(=O)(O)OP(=O)(O)NP(=O)(O)O)[C@@H](O)[C@H]1O [AMP-PNP]
AMP-PNP 2 mM in bath
  GABA current, % of control at 2 mM: 134.2 ± 11.4%
